Measured values taken from PMC7393080.
These are yes or no findings as the source states them, for the method shown. In cells and extracts the contact can be indirect. Some entries that bind do so weakly or less than the wild type.

Protein sequences, listed by entry. Tags and fused reporters are not part of them.
UniProt P49841: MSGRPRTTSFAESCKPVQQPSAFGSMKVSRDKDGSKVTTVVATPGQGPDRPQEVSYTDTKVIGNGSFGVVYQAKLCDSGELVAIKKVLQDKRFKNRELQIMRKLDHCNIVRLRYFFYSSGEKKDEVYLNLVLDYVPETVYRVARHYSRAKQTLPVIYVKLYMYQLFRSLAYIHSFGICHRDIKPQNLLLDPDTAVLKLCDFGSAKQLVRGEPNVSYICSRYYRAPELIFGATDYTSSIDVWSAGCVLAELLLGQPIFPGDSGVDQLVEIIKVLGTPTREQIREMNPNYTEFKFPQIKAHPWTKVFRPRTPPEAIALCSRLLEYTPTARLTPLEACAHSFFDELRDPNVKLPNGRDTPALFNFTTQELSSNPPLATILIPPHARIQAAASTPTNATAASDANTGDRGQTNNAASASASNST
UniProt P08151: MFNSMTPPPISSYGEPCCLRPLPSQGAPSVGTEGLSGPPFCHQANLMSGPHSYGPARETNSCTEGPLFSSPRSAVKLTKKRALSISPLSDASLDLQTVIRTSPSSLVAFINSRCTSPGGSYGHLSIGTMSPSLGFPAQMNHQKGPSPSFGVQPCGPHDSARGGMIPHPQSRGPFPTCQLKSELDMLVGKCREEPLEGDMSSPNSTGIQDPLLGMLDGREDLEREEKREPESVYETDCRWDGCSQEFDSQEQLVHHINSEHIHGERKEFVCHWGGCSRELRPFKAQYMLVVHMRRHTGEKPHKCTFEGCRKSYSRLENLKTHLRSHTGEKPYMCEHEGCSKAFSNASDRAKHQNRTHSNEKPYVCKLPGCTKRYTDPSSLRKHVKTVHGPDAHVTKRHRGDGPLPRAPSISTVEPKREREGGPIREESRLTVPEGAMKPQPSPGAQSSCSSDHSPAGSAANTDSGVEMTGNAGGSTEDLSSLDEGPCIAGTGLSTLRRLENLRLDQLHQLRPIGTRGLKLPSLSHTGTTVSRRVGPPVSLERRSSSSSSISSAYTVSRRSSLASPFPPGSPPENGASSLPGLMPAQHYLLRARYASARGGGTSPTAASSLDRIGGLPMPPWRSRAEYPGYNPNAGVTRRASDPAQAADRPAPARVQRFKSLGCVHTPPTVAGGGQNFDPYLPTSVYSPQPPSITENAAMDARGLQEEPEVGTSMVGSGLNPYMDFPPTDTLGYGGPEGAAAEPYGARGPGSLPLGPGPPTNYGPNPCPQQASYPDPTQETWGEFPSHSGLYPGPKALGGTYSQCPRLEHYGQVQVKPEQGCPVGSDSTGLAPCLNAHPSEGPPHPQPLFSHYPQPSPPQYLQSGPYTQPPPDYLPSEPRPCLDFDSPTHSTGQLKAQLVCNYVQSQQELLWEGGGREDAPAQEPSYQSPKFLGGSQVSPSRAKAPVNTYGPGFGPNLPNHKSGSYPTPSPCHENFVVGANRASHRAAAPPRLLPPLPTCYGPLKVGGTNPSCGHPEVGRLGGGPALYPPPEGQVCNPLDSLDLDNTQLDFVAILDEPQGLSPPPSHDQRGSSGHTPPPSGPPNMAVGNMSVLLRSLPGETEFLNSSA

Molecular target: GSK3β (human (endogenous in A375)) (UniProt P49841)
Assay: co-IP; Melanoma cells (shCtrl or sh/circ-GLI1) lysed in IP Lysis buffer; precipitated with GSK3β or IgG antibody, Pierce Classic IP Kit; SDS-PAGE and western blot

- binding: binds
Substance: GLI1 (from UniProt P08151 1-1106)
